Test results reported in EP1372693B1, “PEPTIDES FOR THE TREATMENT OF WOUND CONTRACTURE” (Johnson & Johnson Medical Ltd., priority 2001, dated 2006).
Not every detail of the peptide structures is certain; ends, links or a residue may be inferred. Peptide text beside a SMILES is read from it.

Columns and labels:
foetal fibroblasts = assay: fibroblast populated collagen gel contraction model, foetal fibroblasts; type: cell-based; details: in vitro fibroblast populated collagen gel
[1] = system: neonatal fibroblasts (HSF 43 SK supplied by ATCC); assay: fibroblast populated collagen gel contraction model (Procedure 1); type: cell-based; details: for collagen gel area: 10ng/ml PDGF per figure legend

C[C@H](NC(=O)[C@@H]1CCCN1C(=O)CN)C(=O)NCC(=O)O [tetrapeptide Gly-Pro-Ala-Gly, Gly-Pro-Ala-Gly] (H-GPAG-OH)
inhibition of collagen gel contraction (foetal fibroblasts): surprisingly effective to inhibit collagen gel contraction | effect on the stimulatory effect of certain growth factors on fibroblast populated collagen gel contraction ([1]; in the presence of growth factors): inhibited the stimulatory effect of certain growth factors | inhibition of collagen gel contraction ([1]; neonatal fibroblasts, in vitro fibroblast populated collagen gel): surprisingly effective to inhibit collagen gel contraction | collagen gel area ([1]; t=3 days, Figure 1(a), 5 ng to 30 µg tetrapeptide, compared with negative control gel): appear to have shrunk slightly less that the negative control gel, but this may not be statistically significant | collagen gel area ([1]; t=6 days, Figure 1(b), higher concentrations of tetrapeptide compared to samples containing less than 3 µg): statistically significant reduction in contracture of the gel area | collagen gel area ([1]; t=9 days, Figure 1(c), higher concentrations of tetrapeptide compared to samples containing less than 3 µg): The same effect is even more marked
